The supplement of paper PMC6411743
± gives the standard deviation of the averaged measurements. Some of the results follow.

The chains behind the UniProt entries cited, without tags or fusion partners. Where a name states a change or a piece, a line headed by the entry shows the natural chain unless it says otherwise.
UniProt P51608, whole entry: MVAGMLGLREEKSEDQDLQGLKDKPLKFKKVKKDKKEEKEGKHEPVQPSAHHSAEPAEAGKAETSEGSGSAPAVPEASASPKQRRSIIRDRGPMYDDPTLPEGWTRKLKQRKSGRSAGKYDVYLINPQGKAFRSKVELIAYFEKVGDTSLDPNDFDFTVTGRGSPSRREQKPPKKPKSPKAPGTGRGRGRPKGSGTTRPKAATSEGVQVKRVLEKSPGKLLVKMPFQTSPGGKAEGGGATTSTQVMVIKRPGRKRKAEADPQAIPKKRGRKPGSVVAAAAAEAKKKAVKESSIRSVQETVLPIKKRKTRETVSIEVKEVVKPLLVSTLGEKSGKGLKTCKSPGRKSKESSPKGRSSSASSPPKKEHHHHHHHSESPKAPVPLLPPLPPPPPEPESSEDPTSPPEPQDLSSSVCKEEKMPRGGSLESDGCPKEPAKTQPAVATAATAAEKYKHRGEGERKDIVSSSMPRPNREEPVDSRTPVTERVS
UniProt Q5TAX3: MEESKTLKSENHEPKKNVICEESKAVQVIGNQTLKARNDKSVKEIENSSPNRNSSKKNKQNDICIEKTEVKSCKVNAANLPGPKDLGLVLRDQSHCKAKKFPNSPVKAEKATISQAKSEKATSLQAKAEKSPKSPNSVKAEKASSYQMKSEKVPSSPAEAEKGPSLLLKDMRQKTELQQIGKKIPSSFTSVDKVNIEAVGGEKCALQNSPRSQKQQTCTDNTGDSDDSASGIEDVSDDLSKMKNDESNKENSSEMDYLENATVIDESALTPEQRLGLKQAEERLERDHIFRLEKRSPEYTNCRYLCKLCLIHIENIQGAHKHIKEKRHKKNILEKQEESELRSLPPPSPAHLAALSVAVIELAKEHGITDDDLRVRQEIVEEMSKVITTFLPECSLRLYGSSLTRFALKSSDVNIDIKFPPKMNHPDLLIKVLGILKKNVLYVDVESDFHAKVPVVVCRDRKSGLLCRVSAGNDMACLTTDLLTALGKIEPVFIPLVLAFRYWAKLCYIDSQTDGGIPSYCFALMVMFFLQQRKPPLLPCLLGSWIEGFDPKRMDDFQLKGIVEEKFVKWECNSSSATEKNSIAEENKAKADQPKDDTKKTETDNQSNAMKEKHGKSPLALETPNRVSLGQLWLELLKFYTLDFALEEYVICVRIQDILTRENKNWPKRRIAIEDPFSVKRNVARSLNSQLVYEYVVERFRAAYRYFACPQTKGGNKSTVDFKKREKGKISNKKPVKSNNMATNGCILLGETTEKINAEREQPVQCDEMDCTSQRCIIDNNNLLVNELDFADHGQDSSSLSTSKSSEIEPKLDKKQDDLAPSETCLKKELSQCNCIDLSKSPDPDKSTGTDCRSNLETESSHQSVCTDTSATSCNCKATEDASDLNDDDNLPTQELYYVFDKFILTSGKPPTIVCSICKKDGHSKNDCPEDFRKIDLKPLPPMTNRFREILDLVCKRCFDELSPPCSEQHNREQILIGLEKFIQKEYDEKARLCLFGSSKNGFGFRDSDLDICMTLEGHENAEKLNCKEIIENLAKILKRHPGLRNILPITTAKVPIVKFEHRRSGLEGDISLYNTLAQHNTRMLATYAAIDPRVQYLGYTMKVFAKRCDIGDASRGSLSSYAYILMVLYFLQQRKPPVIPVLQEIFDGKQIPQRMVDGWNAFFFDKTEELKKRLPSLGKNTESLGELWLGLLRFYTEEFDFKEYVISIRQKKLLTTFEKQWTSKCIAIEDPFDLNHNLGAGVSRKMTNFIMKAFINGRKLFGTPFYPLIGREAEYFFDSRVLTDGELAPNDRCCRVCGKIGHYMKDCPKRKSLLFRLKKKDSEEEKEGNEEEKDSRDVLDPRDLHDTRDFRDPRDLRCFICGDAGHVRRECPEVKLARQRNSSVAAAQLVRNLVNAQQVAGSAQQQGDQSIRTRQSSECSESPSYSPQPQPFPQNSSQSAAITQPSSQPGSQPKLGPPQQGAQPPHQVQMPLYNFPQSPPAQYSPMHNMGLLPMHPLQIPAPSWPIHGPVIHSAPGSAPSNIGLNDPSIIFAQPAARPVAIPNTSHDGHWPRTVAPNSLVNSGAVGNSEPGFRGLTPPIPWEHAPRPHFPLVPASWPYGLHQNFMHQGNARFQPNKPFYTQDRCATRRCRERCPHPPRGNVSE
UniProt Q12979: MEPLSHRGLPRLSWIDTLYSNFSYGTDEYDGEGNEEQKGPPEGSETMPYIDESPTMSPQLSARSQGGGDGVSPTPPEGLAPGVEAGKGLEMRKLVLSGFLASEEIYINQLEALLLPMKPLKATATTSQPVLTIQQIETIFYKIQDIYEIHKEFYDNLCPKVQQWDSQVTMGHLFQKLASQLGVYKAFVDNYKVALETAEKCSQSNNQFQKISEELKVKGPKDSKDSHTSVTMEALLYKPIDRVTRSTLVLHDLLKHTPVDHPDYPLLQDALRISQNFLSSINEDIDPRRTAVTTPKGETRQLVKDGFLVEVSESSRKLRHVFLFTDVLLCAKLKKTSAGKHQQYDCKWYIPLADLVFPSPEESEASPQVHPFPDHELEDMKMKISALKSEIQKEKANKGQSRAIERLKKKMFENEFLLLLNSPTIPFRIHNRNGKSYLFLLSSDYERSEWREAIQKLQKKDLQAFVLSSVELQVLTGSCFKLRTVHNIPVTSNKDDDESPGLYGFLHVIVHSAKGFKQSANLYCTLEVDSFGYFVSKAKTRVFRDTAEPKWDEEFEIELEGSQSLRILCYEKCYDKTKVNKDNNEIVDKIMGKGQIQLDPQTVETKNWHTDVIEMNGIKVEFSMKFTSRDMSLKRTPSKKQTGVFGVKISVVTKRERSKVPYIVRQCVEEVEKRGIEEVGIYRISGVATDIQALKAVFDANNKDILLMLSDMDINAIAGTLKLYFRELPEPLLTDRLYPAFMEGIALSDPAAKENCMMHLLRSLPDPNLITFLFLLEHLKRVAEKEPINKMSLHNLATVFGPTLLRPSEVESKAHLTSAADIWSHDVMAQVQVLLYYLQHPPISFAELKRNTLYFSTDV
UniProt Q9UBF8: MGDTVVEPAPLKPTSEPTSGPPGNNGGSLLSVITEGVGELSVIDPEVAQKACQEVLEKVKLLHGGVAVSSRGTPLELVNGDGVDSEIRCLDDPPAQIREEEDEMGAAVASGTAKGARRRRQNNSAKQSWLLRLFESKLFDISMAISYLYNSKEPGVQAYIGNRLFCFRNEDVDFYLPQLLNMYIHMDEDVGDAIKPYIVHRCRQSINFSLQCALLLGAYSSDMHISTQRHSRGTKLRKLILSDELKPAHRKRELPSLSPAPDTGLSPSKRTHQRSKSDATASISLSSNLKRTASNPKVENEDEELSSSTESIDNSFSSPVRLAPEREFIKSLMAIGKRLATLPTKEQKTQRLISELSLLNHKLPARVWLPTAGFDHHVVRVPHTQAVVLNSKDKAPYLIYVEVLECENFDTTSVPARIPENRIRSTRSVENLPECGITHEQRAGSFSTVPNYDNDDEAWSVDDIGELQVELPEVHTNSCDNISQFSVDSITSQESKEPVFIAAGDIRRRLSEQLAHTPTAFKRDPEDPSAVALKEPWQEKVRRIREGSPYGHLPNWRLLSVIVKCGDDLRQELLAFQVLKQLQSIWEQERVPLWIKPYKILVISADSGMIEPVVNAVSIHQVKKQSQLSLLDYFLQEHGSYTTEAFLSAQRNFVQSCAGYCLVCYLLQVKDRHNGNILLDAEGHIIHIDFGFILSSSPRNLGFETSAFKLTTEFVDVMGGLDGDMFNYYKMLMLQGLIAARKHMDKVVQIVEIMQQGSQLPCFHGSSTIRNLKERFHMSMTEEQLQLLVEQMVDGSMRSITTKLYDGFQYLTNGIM

Compound: Nc1nc2c(ncn2[C@@H]2O[C@H](COP(=O)(O)OP(=O)(O)OP(=O)(O)O)[C@@H](O)[C@H]2O)c(=O)[nH]1 [guanosine triphosphate]
Experiment: NP40-soluble protein abundance relative to vehicle (solubility fold change) (ratio); higher = more soluble protein in presence of GTP
Method: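 Solubility proteome profiling in Jurkat crude lysate. Lysate was treated with Mg-GTP (0.1-10 mM) for 10 min at room temperature and 3 min at 37 °C, then solubilised with 0.8% NP40 and benzonase, followed by ultracentrifugation. Proteins were quantified by TMT10 LC-MS/MS; the value is the NP40-soluble abundance relative to the NP40-processed vehicle, from 3 independent experiments.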

Target	NP40-soluble protein abundance (concentration: 0.1mM)	NP40-soluble protein abundance (concentration: 0.5mM)	NP40-soluble protein abundance (concentration: 1mM)	NP40-soluble protein abundance (concentration: 2mM)	NP40-soluble protein abundance (concentration: 4mM)	NP40-soluble protein abundance (concentration: 6mM)	NP40-soluble protein abundance (concentration: 8mM)	NP40-soluble protein abundance (concentration: 10mM)
A0A087WXF0|P51608 and related entries (UniProt P51608)	1 ± 0.035	1.03 ± 0.099	1.02 ± 0.069	1.07 ± 0.11	1.1 ± 0.095	1.12 ± 0.12	1.14 ± 0.067	1.18 ± 0.053
A0A0C4DFM7|Q5TAX3 (UniProt Q5TAX3)	1.02 ± 0.027	1 ± 0.034	0.989 ± 0.032	0.98 ± 0.03	0.992 ± 0.064	0.985 ± 0.085	0.989 ± 0.035	0.985 ± 0.036
A0A0G2JQ41|Q12979 and related entries (UniProt Q12979)	1.03 ± 0.059	1.05 ± 0.071	0.969 ± 0.03	1.01 ± 0.064	0.973 ± 0.066	0.955 ± 0.066	0.938 ± 0.025	0.9 ± 0.052
A0A0C4DH44|P62888 (UniProt P62888)	0.94 ± 0.043	0.936 ± 0.056	0.983 ± 0.067	0.997 ± 0.083	0.944 ± 0.14	0.946 ± 0.14	0.794 ± 0.054	0.985 ± 0.14
A0A0B4J1S8|Q9UBF8 and related entries (UniProt Q9UBF8)	1.05 ± 0.054	1.01 ± 0.092	1.02 ± 0.049	0.993 ± 0.11	0.968 ± 0.033	0.969 ± 0.039	0.964 ± 0.011	0.92 ± 0.032
